# Screening data, single-dose tests

Sequences of proteins named here, by UniProt entry; tags and fusion partners are left off. Residues count along the entry.
UniProt A4I591, 1-473: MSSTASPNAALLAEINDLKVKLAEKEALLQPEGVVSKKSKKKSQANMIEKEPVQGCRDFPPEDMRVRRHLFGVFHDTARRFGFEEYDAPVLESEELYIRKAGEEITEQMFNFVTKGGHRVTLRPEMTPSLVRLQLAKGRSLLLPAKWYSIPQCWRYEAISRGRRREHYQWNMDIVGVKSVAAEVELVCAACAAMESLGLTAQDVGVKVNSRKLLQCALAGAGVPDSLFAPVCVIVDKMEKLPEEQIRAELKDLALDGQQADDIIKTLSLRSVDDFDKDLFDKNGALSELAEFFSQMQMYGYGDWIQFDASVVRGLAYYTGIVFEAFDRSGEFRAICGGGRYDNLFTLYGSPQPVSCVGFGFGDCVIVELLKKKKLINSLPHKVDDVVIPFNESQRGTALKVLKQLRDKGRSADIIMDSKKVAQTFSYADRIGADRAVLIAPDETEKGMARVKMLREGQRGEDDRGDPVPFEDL

Data taken from ChEMBL document CHEMBL3988442, “University of Dundee, Small-Polar-MMV Screening Library” (2021).

LiHisRS: 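Histidine-tRNA ligase, Leishmania infantum (UniProt A4I591). Enzyme assay of histidyl-tRNA synthetase; the read-out is not stated. Concentration: 30 µM. Higher reads as stronger inhibition (inferred: compounds with an IC50 in retests scored well above the rest). The assay is labelled LdHisRS but filed under L. infantum. About 69,000 compounds were tested under these conditions; 0.6% (about 410) showed 50% or more at least once.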
Toxoplasma: 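Assay of Toxoplasma gondii numbers, read through their beta-galactosidase reporter with a colour substrate. Compounds at 10 µM. Higher reads as fewer parasites (inferred from which compounds were picked for retests). About 67,000 compounds were tested under these conditions; 0.38% (about 260) showed 50% or more at least once.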

Values are the deposited “Percent Effect”, in %.
The controls that fix the scale are not given in the record; negative values are as filed.
The compounds are a random part of those screened.
A dash means the value is not listed here; it may have been measured.

Compound	LiHisRS	Toxoplasma
O=C(NCc1cccnc1-n1cncn1)C1CC2(CCNCC2)CN1 (configuration not stated)	4.918	-31.69
COc1cc2cc(C(=O)N[C@@H](C)C(=O)O)n(C)c2c(OC)c1OC	17.48	-3.586
Cc1cc(C)nc(N2CCN(C(=O)c3ccc(C4CCCO4)s3)CC2)n1 (configuration not stated)	13.11	4.464
O=C(Cn1cccn1)NCC1(c2ccccc2)CC1	-8	-44.83
O=C(c1ccoc1)N1CCn2cnc(COCC3CC3)c2C1	15	-6.122
Cc1cnc2c(S(=O)(=O)NC(=O)C(C)OCC3CC3)cccc2c1 (configuration not stated)	16.44	12.59
CC(C)c1nc(CN2CCOC(Cn3cncn3)C2)no1 (configuration not stated)	10.91	11.9
COc1nn(C)cc1-c1nnc(SCc2cccnc2)n1C	17.2	4.249
O=C(NCC1CC1)[C@H]1C[C@H]2OCC[C@H]2N(Cc2ccoc2)C1	10.53	-
CSCC(=O)NCc1cc(Br)ccc1OC(F)F	9.821	0.9302
NCC1CCCCN1C(=O)Cc1ccc(F)c(F)c1 (configuration not stated)	11.4	-
Cc1cccc(COC[C@]23COC[C@H]2CN(C(=O)c2ccsc2)C3)n1	19.23	-
Cc1noc(C)c1S(=O)(=O)N(CC(N)=O)CC(C)C	18	-4.222
CCc1cc2cc(OC)c(OC)cc2nc1SCCN1CCCCC1	36.88	-
CS(=O)(=O)N[C@@H]1CN(Cc2ccccc2)C[C@H]1O	2.685	-59.21
COCCN1CCN(Cc2cccc(C(=O)N(C)C)c2)CC1	10.34	5.643
O=C(CNC(=O)Nc1c(F)cccc1Oc1ccccc1)NC1CC1	11.67	2.935
O=C(Nc1ccc(F)cc1)C1CSCN1 (configuration not stated)	7.692	-18.26
CC(C)N(C)[C@@H]1CCN(c2ncccn2)[C@H]1Cc1ccncc1	13.89	-
CO[C@@H]1CN(c2ccccc2)S(=O)(=O)[C@@]12CCNC2	16.49	1.141
CCSCCC(=O)NCc1cnn(-c2ccc(F)cc2F)c1	2.74	-3.558
O=c1[nH][nH]cc1-c1ccnc(NCCCN2CCOCC2)n1	20	15.06
NC(=O)Nc1cccc(C(=O)N(Cc2ccncc2)C2CC2)c1	12.7	-7.27
Cc1noc(C)c1-c1nc(C2CCCN(C(=O)CN)C2)ccc1CO (configuration not stated)	10.74	7.782
CCOc1c(F)cccc1C(=O)N(CC)C(C)c1ccncc1 (configuration not stated)	9.91	-1.364
CNC(=O)c1ccccc1-c1ccc(S(C)(=O)=O)cc1	15.84	-1.748
CC(Cn1cccn1)NC(=O)c1cccs1 (configuration not stated)	10.34	-5.643
[H][C@@]12C[C@H](C(=O)Nc3cccnc3)[C@@]([H])(CN(C)C1)O2	-	9.35
O=C(O)c1ccc(C2CCCN(Cc3ccc(-c4cc[nH]n4)o3)C2)cc1 (configuration not stated)	24.49	13.08
O=c1[nH]ccc2cc(-c3cc(O)cc(CCC4CCCCN4)c3)ccc12 (configuration not stated)	1.075	1.441
CN(C)CCN1CCOCC2(CCCN(C(=O)c3ccoc3)C2)C1 (configuration not stated)	11.43	-
Cc1nc(N(C)C)nc(NCCc2cnccn2)c1C	20.41	-8.58
Clc1cccnc1N1CCC(NCc2cccc3cn[nH]c23)C1 (configuration not stated)	13.7	-7.494
CN(C)c1nc2n(c(=O)n1)CCN2C(=O)Nc1ccc(Cl)cc1	16.81	0.2016
Cc1cccc(OCCN2CCN(Cc3cnn(CCO)c3)CC2)c1	9.174	12.92
COc1c[nH]c(C(=O)Nc2nc(C)cs2)cc1=O	15.79	-10.18
COc1ccc(C(=O)N2CCCC(NC(=O)C(C)C)C2)c(O)c1 (configuration not stated)	8.772	-11.72
CCc1ccccc1CN1CC[C@@H](NC(=O)c2cccnc2)[C@H](O)C1	16.35	-0.8142
Cc1ccc(NC2CCN(C(=O)CCc3ccncc3)CC2)nn1	14.29	-1.104
O=C(O)C(F)(F)F.[H][C@]12CC[C@@]3(N=C(C)N(CC4CC4)C3=O)[C@@]1([H])CN(CCOC)C2	-	-8.403
Cc1cc(C(=O)N2CCC3(C2)CN(c2ccsc2)C(=O)CN3C)[nH]n1 (configuration not stated)	6.422	-
Cc1nc(C)c(C(=O)Nc2ccc(-c3nnc(N(C)C)o3)cc2)o1	6.25	1.408
CN(Cc1nc(-c2ccoc2)no1)C1CCCN(c2cccnn2)C1 (configuration not stated)	7.143	11.37
O=C(Nc1ccc(-c2ccccc2)cc1)N1C[C@@H]2CNC[C@]2(C(=O)O)C1	15.38	-

5 of the entries, repeated:

Result for Cc1cc(C)nc(N2CCN(C(=O)c3ccc(C4CCCO4)s3)CC2)n1 (configuration not stated) was LiHisRS: 13.11%; Toxoplasma: 4.464%.
Result for CC(Cn1cccn1)NC(=O)c1cccs1 (configuration not stated) was LiHisRS: 10.34%; Toxoplasma: -5.643%.
Result for O=C(Nc1ccc(F)cc1)C1CSCN1 (configuration not stated) was LiHisRS: 7.692%; Toxoplasma: -18.26%.
Result for Cc1nc(C)c(C(=O)Nc2ccc(-c3nnc(N(C)C)o3)cc2)o1 was LiHisRS: 6.25%; Toxoplasma: 1.408%.
Result for O=C(NCC1CC1)[C@H]1C[C@H]2OCC[C@H]2N(Cc2ccoc2)C1 was LiHisRS: 10.53%.